Laboratory results from the supplement of paper PMC5949888.
Most values lie at the floor of the assay. Slopes are relative: functional sequences can read slightly below zero.

The substances below were run on Saccharomyces cerevisiae PS128 hsf1 delta, HSF1(1-493) fusion (assay: growth estimate (transactivation domain function in HSF1 fusion, heat-shock survival) (a.u. (slope of normalised read count over time)); higher = stronger growth at 37°C, i.e. more transactivation activity). Conditions: library: random library.

Substance | growth estimate
RLVITRNTISRG | < -0.25
RLVNLGGTCRRMSAPGALFG | < -0.25
RLVVRKVRFRTRPQVTALVG | < -0.25
RLWRLL | < -0.25
RLYM | < -0.25
RLYNACLIYGATGRHLYGRV | < -0.25
RMAHRECADIKRNRVLNRKF | < -0.25
RMEITLMEAYSE | < -0.25
RMEVVILPTIANGVYLRQT | < -0.25
RMFQIIGNGTAFGGSIGHPP | < -0.25
RMGLFGIYGSVGIYIAVYLS | 0.001
RMKLRTTSCL | < -0.25
RMLL | < -0.25
RMLRYGVTLTITHGLLIPCY | -0.126
RMNQCRRRCS | < -0.25
RMQYSGDTMREAPEDTARYI | < -0.25
RMRCECCEREIESYGGRARS | < -0.25
RMRILAAPPPQAAGVQY | < -0.25
RMRRLERVCSWLGYKGNRMA | < -0.25
RMRSDDWDIRPGLGGEIPGK | < -0.25
RMRWGKGTSSSREAGNYGRT | -0.243
RMSPGVGSFIVYSIRYRWGI | < -0.25
RMSTGRA | < -0.25
RMTV | < -0.25
RMVAGSRAVNRPRQAVLALI | < -0.25
RNAVLCASVTWQHIGHDSVA | < -0.25

Shown as a markdown table: part of the list above

| Substance | growth estimate |
| --- | --- |
| RLVITRNTISRG | < -0.25 |
| RLWRLL | < -0.25 |
| RMLRYGVTLTITHGLLIPCY | -0.126 |
| RMRILAAPPPQAAGVQY | < -0.25 |

More entries

Substance | growth estimate
RNCPPMVVREGGR | < -0.25
RNCTHGC | < -0.25
RNDIN | < -0.25
RNDSWNLYACA | < -0.25
RNEASYCPIVNQTSPNST | < -0.25
RNGARGLMSGSHNQPPQGHR | -0.245
RNGDHRNGPIIKTIRSFVRR | < -0.25
RNGIRRVWEGRVRPHSPRAG | < -0.25
RNGSFESRPSEN | < -0.25
RNK | < -0.25
RNLGVVRDTL | -0.246
RNMRSVICTER | < -0.25
RNNS | < -0.25
RNPEQDLD | < -0.25
RNQHS | < -0.25
RNQKPVLWPRQLWGLVTPIM | < -0.25
RNQKSGPRGCISCEFPNWCS | < -0.25
RNQKVPEVRRLRRRETCRKA | < -0.25
RNRASCTGTGL | < -0.25
RNRDQTDELVARFTAKSTPR | -0.208
RNRSNAGDRQALSRELLCHG | < -0.25
RNRSQGPTE | < -0.25
RNSCAGTRPIKIAFSQGLDA | < -0.25
RNTKHHC | < -0.25
RNTLSNADKGCLSIHAVAGR | < -0.25
RNTTGQYPL | < -0.25

Substance | growth estimate
RNVKAR | < -0.25
RNWCISRLGRAWISRKHM | < -0.25
RPAL | < -0.25
RPALVVTGGRSGLHES | < -0.25
RPD | < -0.25
RPDASSEGSEVHHNTFTSRA | < -0.25
RPDKKVVEH | < -0.25
RPDVRGNY | < -0.25
RPEHTNGDRRDGFWG | < -0.25
RPESR | < -0.25
RPFGQYAATTRGLSF | -0.134
RPFLHSRLR | < -0.25
RPFMDLSRQDVSPYCRHTKA | < -0.25
RPFYGTHLAVLAEWGPS | < -0.25
RPGDVVQMSVGHYA | < -0.25
RPGGSVRSRDAGFLSSPSLQ | < -0.25
RPGIRIARSTDTQSLAHHGL | < -0.25
RPGLCYHRV | < -0.25
RPGVGQSSEKCRGFLTSEHL | < -0.25
RPGVSV | -0.151
RPHIPWGEDRRLMSIPSGEW | < -0.25
RPHR | < -0.25
RPHRVGSLRLRNWHYLEVGM | < -0.25
RPIHLPPMEHHDRLLC | < -0.25
RPIPAI | < -0.25
RPIQCCTHII | -0.179

Substance | growth estimate
RPKGWGQWSFLGEYVTHMRR | < -0.25
RPKRLYHLTG | < -0.25
RPLK | < -0.25
RPLNPGK | -0.245
RPLRLCILTERLLRRQVSRK | -0.228
RPLSSSLDDLSSYGCRASSL | < -0.25
RPMRMMRDRGDVLPRSRLRE | < -0.25
RPMSGETDQA | < -0.25
RPNFAL | < -0.25
RPNPRN | < -0.25
RPPKHQEGVRQVLRFESRTR | < -0.25
RPPRNDRT | < -0.25
RPPSEQWVKIN | < -0.25
RPRANRRG | < -0.25
RPRAPSTRRGKRRRCELCMM | < -0.25
RPRCKLCSDGSFTKPSIVRH | < -0.25
RPRGVGPGRGPEL | < -0.25
RPRGYRQSPRPDVWVEGGMN | < -0.25
RPRHKIA | < -0.25
RPRN | < -0.25
RPRP | < -0.25
RPRTANKVSIALEWFPLSMG | < -0.25
RPRTTNGDPIGLQVPIGARD | < -0.25
RPSGLDLGRRIPVFCRGLLL | < -0.25
RPTEVW | < -0.25
RPTICDDKYKKKP | < -0.25

Look-ups from the results shown:
growth estimate, RPMRMMRDRGDVLPRSRLRE is entered as < -0.25
growth estimate, RPRCKLCSDGSFTKPSIVRH is entered as < -0.25

The results go on.

Substance | growth estimate
RPTTLRLLGRATFGAAKRIG | < -0.25
RPTYIRLGISAC | < -0.25
RPWLASGF | < -0.25
RQCGALLVLRRPRYSWPHKE | < -0.25
RQCGETDSFPSTSTRFA | < -0.25
RQCLTRFCGNGVTIG | < -0.25
RQCVVKLRWIKQMLGPVHLR | < -0.25
RQEMAFITPS | < -0.25
RQGFIFCPSSSMVSAQSTQT | < -0.25
RQGNILSFANVTSSK | < -0.25
RQHNKDPWGLPHILRSHQET | < -0.25
RQIGGNGSQLSLFCN | -0.237
RQIHPPRPKKT | < -0.25
RQIRKLIPATTELVSQYLQR | < -0.25
RQNQI | < -0.25
RQPYLRCAERI | < -0.25
RQPYYSSVFKAPWVCDVNNA | < -0.25
RQRGFHGIQTKLASGIAGDG | < -0.25
RQRKALLR | < -0.25
RQRSPRI | < -0.25
RQRTIGVGDLNISDSPTGDA | < -0.25
RQSVGISIRGCNPTPSVWGR | < -0.25
RQTG | < -0.25
RQTKGTGMHQREQSMVCISF | 0.0823
RQTQVKDTRCVLYHRH | < -0.25
RQV | < -0.25

Substance | growth estimate
RQVYGPAQRSKVRRWDA | < -0.25
RQYGTEDRFDQGTLAHHDSC | < -0.25
RRAFTWGQGVREVHDAPQTR | < -0.25
RRAGTMSGQLQGILIPNAAN | < -0.25
RRAIASGGGRITNVWRVLSS | < -0.25
RRAKLCYICSDFSSGFLGLL | < -0.25
RRASM | < -0.25
RRASRRFLFW | < -0.25
RRCECEL | < -0.25
RRCEFPT | < -0.25
RRCGGPLVPTTVV | < -0.25
RRCIVSGSSSSEVPAVGARQ | < -0.25
RRCSP | < -0.25
RRCV | < -0.25
RRDCPGA | < -0.25
RREGLFTGIVCTGIAPSTHT | < -0.25
RREHWSMIVYG | < -0.25
RRFGRCPSWRNSGAGWARSN | < -0.25
RRGEVVGPQTILQQSHRRET | < -0.25
RRGF | < -0.25
RRGGLTDL | < -0.25
RRGMIATAVVVCDIVNHVVA | < -0.25
RRGQSASCTIDPACTS | < -0.25
RRGTPGRMSFS | < -0.25
RRHNCSDLGFSLMSENCLLP | < -0.25
RRHRRQG | < -0.25

Substance | growth estimate
RRIYS | < -0.25
RRKNVVHWMRVVEESGAEPD | < -0.25
RRKPFDRDSAQPDRSVTTGH | < -0.25
RRKRFVLALSRVKRYSSASA | < -0.25
RRKSG | < -0.25
RRKVSSRMSRTTGVQRSTTR | < -0.25
RRLGLF | < -0.25
RRLIATESPVILRSHIPLRA | < -0.25
RRLKSIGRKRSCA | < -0.25
RRLPPRVSGYTRPPKRSARS | < -0.25
RRLSKCNLY | < -0.25
RRLTPIVTWTKPGLTRESGL | < -0.25
RRLVLSMGM | < -0.25
RRMRAVLRQRASLGGEDGVA | < -0.25
RRNSSYDNSFIPGSLRQSPD | < -0.25
RRP | < -0.25
RRPVNRPAQDY | < -0.25
RRPVPPSAQRNSN | < -0.25
RRQKVIYVNHPGVRPALKAK | < -0.25
RRQT | < -0.25
RRRISGFIAANC | < -0.25
RRSAVSQVWMGSHQIGRPGR | < -0.25
RRSCMAVVKMAKYGSKRQYR | < -0.25
RRSEDVKLMLSGECVSKIPI | < -0.25
RRSFRGVGGNTPTKWLFGAE | < -0.25
RRSIGE | < -0.25

Part of the list above, reformatted:
Substance	growth estimate
RRSAVSQVWMGSHQIGRPGR	< -0.25
RRSCMAVVKMAKYGSKRQYR	< -0.25

The list goes on.

Substance | growth estimate
RRSKINDEESVMNRVPRAQL | < -0.25
RRSNY | < -0.25
RRSPKCGEDAPRELVFGTND | < -0.25
RRSQTMTCQGSVTSWKCYGE | < -0.25
RRSSNNRSTAIRTQPRIIAV | < -0.25
RRSSVVMKGTVQTDQPPCYD | < -0.25
RRSTIALFGRGRRNLRGLTI | < -0.25
RRTLAGNRAVW | -0.245
RRTPREAEDLILRGSQRMQ | < -0.25
RRTRRCRVSMTMESDHGRFL | < -0.25
RRVCRKSERVHIAQARTCCT | < -0.25
RRVDFPNSLKKAGSNTPGRT | < -0.25
RRVRLRR | < -0.25
RRW | < -0.25
RRWFVIDLL | < -0.25
RRWGAPRQV | < -0.25
RRWTATLSLGLGNAKFSHSH | < -0.25
RRYGRH | < -0.25
RRYPLESLVFCL | -0.246
RRYSSRHSVLGSSLSKPLSV | -0.245
RSAAGSMGG | < -0.25
